Test results as given in article PMC12242765, “CDK-driven phosphorylation of TRAIP is essential for mitotic replisome disassembly and MiDAS” (Nucleic Acids Research, 2025).
Results are given in words; binding and its absence hold for the method and conditions named. In cells and extracts the contact can be indirect. Some binding calls cover weakened binding; strength is not graded here.

Protein sequences, listed by entry. Tags and fused reporters are not part of them.
UniProt Q9YHZ6: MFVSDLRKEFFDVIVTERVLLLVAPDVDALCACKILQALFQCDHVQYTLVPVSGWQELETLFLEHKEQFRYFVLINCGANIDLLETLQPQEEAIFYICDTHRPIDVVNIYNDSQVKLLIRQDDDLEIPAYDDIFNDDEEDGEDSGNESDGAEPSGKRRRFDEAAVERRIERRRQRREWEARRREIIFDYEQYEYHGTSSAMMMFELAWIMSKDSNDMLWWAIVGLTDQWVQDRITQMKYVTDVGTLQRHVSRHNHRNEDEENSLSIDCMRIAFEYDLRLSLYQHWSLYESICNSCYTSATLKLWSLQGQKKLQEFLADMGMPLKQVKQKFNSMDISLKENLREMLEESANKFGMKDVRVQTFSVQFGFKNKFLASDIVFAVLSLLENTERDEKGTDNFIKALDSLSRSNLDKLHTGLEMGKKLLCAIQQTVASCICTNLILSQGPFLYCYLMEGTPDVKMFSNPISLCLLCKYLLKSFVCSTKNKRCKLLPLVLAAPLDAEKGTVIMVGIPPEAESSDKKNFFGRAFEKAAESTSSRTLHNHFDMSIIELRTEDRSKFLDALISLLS
UniProt Q91876: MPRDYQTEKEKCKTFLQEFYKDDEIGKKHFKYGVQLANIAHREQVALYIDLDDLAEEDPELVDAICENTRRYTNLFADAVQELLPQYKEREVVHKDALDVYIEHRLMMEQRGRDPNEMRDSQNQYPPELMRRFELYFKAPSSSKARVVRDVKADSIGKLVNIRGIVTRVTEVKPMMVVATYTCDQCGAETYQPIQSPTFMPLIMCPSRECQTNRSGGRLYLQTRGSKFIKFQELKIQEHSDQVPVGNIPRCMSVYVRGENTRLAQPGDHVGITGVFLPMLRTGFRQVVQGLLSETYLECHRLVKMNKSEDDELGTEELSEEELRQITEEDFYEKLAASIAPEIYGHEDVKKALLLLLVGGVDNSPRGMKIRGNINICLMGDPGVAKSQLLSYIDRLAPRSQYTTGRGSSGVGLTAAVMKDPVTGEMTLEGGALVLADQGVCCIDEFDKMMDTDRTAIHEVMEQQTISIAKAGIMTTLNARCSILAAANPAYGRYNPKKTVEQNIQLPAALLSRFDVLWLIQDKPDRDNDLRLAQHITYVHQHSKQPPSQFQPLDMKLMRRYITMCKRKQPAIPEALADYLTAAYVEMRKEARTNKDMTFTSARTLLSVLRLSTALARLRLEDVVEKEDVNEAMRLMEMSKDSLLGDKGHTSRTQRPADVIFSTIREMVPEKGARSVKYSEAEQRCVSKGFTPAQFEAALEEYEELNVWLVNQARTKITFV

Target: X. laevis rCdc45-FLAG (X. laevis) (UniProt Q9YHZ6)
Experiment: co-IP; rCdc45-FLAG added to the replication reaction in egg extract with CULi and p97i; chromatin isolated in S-phase or 30 min after CyclinAΔN; replisomes released by benzonase, FLAG-IP, elution with FLAG peptide; immunoblot; only the target purified

binding: binds
Substance: Mcm7 (from UniProt Q91876 1-720)
